Experimental data from patent US20250143305A1, “PYRAZOLE COMPOUND AND PEST CONTROL AGENT CONTAINING THE SAME AS ACTIVE INGREDIENT” (MITSUI CHEMICALS CROP & LIFE SOLUTIONS, INC., priority 2022, published 2025).
Some of these results come from one statement about several compounds together.

What was measured:
Format in all cases: in vivo
Myzus persicae = assay: Insecticidal test against Myzus persicae, spray on radish leaves; conditions: 100 ppm; 20% acetone aqueous solution sprayed on radish leaves; 25 young larvae; 25° C.; after 5 days
Method: Insecticidal Test Against Myzus persicae
2.5 ml of a 20% acetone aqueous solution prepared to have a predetermined concentration of the test compound was sprayed on the leaves of radish (Raphanus sativus) in which the roots retained water and 25 young larvae were parasitized. After air drying, it was allowed to stand in a thermostatic chamber at 25° C., and the number of living insects and the number of dead insects were examined after 5 days.

Sogatella furcifera = assay: Insecticidal test against Sogatella furcifera, spray on rice seedling; conditions: 100 ppm; acetone solution sprayed on rice seedling; 10 young larvae; 25° C.; after 6 days
Method: Insecticidal Test Against Sogatella furcifera
(§1) 2.5 ml of an acetone solution prepared to have a predetermined concentration of the test compound was sprayed on a rice (Oryza sativa) seedling, and the rice seedling was transferred to a glass tube in which water was retained. After air drying, 10 young larvae were released into the glass tube, and the glass tube was covered with a sponge stopper. The glass tube was allowed to stand in a thermostatic chamber at 25° C., and the numbers of living insects and dead insects were examined after 6 days.

Nilaparvata lugens = assay: Insecticidal test against Nilaparvata lugens, spray on rice seedling; conditions: 100 ppm; acetone solution sprayed on rice seedling; 10 young larvae; 25° C.; after 6 days
Method: Insecticidal Test Against Nilaparvata lugens
as §1

| SMILES | mortality rate (Myzus persicae) [%] | mortality rate (Sogatella furcifera) [%] | mortality rate (Nilaparvata lugens) [%] |
| --- | --- | --- | --- |
| CCSc1c(-c2nc3cc(C(F)(F)F)ncn3n2)nn(C)c1NC(=O)C(F)(F)F [compound 6] | ≥ 50 | – | – |
| CCS(=O)(=O)c1c(-c2nc3cc(C(F)(F)F)ncn3n2)nn(C)c1NC(=O)C(F)(F)C(F)(F)C(F)(F)F [compound 24] | – | ≥ 50 | ≥ 50 |
| CCSc1c(-c2cn3cnc(C(F)(F)F)cc3n2)nn(C)c1N(C)C(=O)C(F)(F)C(F)(F)C(F)(F)F [compound 35] | – | ≥ 50 | ≥ 50 |
| CCSc1c(-c2nc3cc(C(F)(F)F)ncn3n2)nn(C)c1NC(=O)C(F)(F)C(F)(F)C(F)(F)C(F)(F)F [compound 46] | – | ≥ 50 | – |
| CCSc1c(-c2cn3cnc(C(F)(F)F)cc3n2)nn(C)c1NC(=O)C(C)C [compound 49] | – | ≥ 50 | ≥ 50 |
| CCSc1c(-c2cn3cnc(C(F)(F)F)cc3n2)nn(C)c1NC(=O)C(F)(F)C(F)(F)C(F)(F)C(F)(F)F [compound 55] | – | ≥ 50 | ≥ 50 |
| CCS(=O)(=O)c1c(-c2nc3cc(C(F)(F)F)ncn3n2)nn(C)c1NC(=O)C(F)(F)C(F)(F)C(F)(F)C(F)(F)F [compound 57] | – | ≥ 50 | ≥ 50 |
| CCSc1c(-c2cn3cnc(C(F)(F)F)cc3n2)nn(C)c1NC(=O)CC(C)C [compound 71] | – | ≥ 50 | – |
| CCSc1c(-c2cn3cnc(C(F)(F)F)cc3n2)nn(CC)c1N(C)C(=O)OC(C)(C)C [compound 88] | – | ≥ 50 | – |
| CCS(=O)(=O)c1c(-c2cn3cnc(C(F)(F)F)cc3n2)nn(C)c1NC(=O)C(F)(F)C(F)(F)C(F)(F)C(F)(F)C(F)(F)F [compound 92] | – | ≥ 50 | ≥ 50 |
| CCCn1nc(-c2cn3cnc(C(F)(F)F)cc3n2)c(SCC)c1N [compound 93] | – | ≥ 50 | ≥ 50 |
| CCCn1nc(-c2cn3cnc(C(F)(F)F)cc3n2)c(SCC)c1NC(=O)C(F)(F)C(F)(F)F [compound 95] | – | ≥ 50 | ≥ 50 |
| CCCn1nc(-c2cn3cnc(C(F)(F)F)cc3n2)c(SCC)c1NC(=O)C(F)(F)C(F)(F)C(F)(F)F [compound 96] | – | ≥ 50 | ≥ 50 |
| CCCn1nc(-c2cn3cnc(C(F)(F)F)cc3n2)c(SCC)c1NC(=O)C(F)F [compound 114] | – | ≥ 50 | ≥ 50 |
| CCS(=O)(=O)c1c(NC(=O)C(F)(F)F)nn(CC(F)(F)F)c1-c1cn2cnc(C(F)(F)F)cc2n1 [compound 138] | – | ≥ 50 | – |
| CCSc1c(-c2cn3cnc(C(F)(F)F)cc3n2)nn(CC(F)(F)F)c1N [compound 149] | – | ≥ 50 | – |
| CCSc1c(-c2cn3cnc(C(F)(F)F)cc3n2)nn(C)c1NC(=O)N(C)C [compound 152] | – | ≥ 50 | – |
| C=CC(=O)Nc1c(SCC)c(-c2cn3cnc(C(F)(F)F)cc3n2)nn1C [compound 165] | – | ≥ 50 | – |
| CCSc1c(-c2nc3cc(C(F)(F)F)ncn3n2)nn(CC)c1NC(=O)OC(C)(C)C [compound 168] | – | ≥ 50 | – |

| SMILES | mortality rate (Myzus persicae) [%] | mortality rate (Sogatella furcifera) [%] | mortality rate (Nilaparvata lugens) [%] |
| --- | --- | --- | --- |
| C=C(F)C(=O)Nc1c(SCC)c(-c2cn3cnc(C(F)(F)F)cc3n2)nn1C [compound 170] | – | ≥ 50 | – |
| CCSc1c(-c2nc3cc(C(F)(F)F)ncn3n2)nn(CC)c1NC(=O)C(F)(F)C(F)(F)C(F)(F)F [compound 177] | – | ≥ 50 | ≥ 50 |
| CCSc1c(-c2nc3cc(C(F)(F)F)ncn3n2)nn(CC)c1NC(=O)C(F)(F)C(F)F [compound 184] | – | ≥ 50 | ≥ 50 |
| CCSc1c(-c2nc3cc(C(F)(F)F)ncn3n2)nn(CC)c1NC(=O)C(Cl)(Cl)Cl [compound 186] | – | ≥ 50 | ≥ 50 |
| CCSc1c(-c2cn3c(C)nc(C(F)(F)F)cc3n2)nn(C)c1NC(=O)C(F)(F)C(F)(F)C(F)(F)F [compound 194] | – | ≥ 50 | ≥ 50 |
| CCSc1c(-c2cn3cnc(C(F)(F)F)cc3n2)nn(C)c1NC(=O)C1CCC1 [compound 215] | – | ≥ 50 | – |
| CCSc1c(-c2cn3cnc(C(F)F)cc3n2)nn(C)c1NC(=O)C(F)(F)F [compound 231] | – | ≥ 50 | – |
| CCSc1c(-c2cn3cnc(C(F)F)cc3n2)nn(C)c1NC(=O)C(F)(F)C(F)(F)C(F)(F)F [compound 235] | – | ≥ 50 | ≥ 50 |
| CCSc1c(-c2cn3cnc(C(F)F)cc3n2)nn(C)c1NC(=O)C(F)(F)C(F)F [compound 239] | – | ≥ 50 | – |
| CCSc1c(-c2cn3cnc(C(F)F)cc3n2)nn(C)c1NC(=O)C(F)(F)C(F)(F)F [compound 242] | – | ≥ 50 | ≥ 50 |
| CCSc1c(-c2cn3c(Cl)nc(C(F)(F)F)cc3n2)nn(C)c1NC(=O)C(F)(F)F [compound 244] | – | ≥ 50 | – |
| CCSc1c(-c2cn3cnc(C(F)F)cc3n2)nn(C)c1NC(=O)C(Cl)(Cl)Cl [compound 250] | – | ≥ 50 | ≥ 50 |
| CCSc1c(-c2cn3cnc(C(F)(F)F)cc3n2)nn(CC)c1NC(=O)C(Cl)(Cl)Cl [compound 252] | – | ≥ 50 | ≥ 50 |
| CCSc1c(-c2cn3c(C4CC4)nc(C(F)(F)F)cc3n2)nn(C)c1N [compound 259] | – | ≥ 50 | – |
| CCSc1c(-c2cn3c(C4CC4)nc(C(F)(F)F)cc3n2)nn(C)c1NC(=O)C(F)(F)C(F)(F)F [compound 262] | – | ≥ 50 | ≥ 50 |
| CCOc1nc(C(F)(F)F)cc2nc(-c3nn(C)c(NC(=O)C(F)(F)F)c3SCC)cn12 [compound 268] | – | ≥ 50 | ≥ 50 |
| CCSc1c(-c2cn3c(C4CC4)nc(C(F)(F)F)cc3n2)nn(C)c1NC(=O)C(F)(F)C(F)(F)C(F)(F)F [compound 270] | – | ≥ 50 | ≥ 50 |
| CCSc1c(-c2cn3c(OCC(F)(F)F)nc(C(F)(F)F)cc3n2)nn(C)c1NC(=O)C(F)(F)F [compound 276] | – | ≥ 50 | – |
| CCS(=O)(=O)c1c(-c2cn3c(OCC(F)(F)F)nc(C(F)(F)F)cc3n2)nn(C)c1NC(=O)C(F)(F)F [compound 278] | – | ≥ 50 | ≥ 50 |

| SMILES | mortality rate (Myzus persicae) [%] | mortality rate (Sogatella furcifera) [%] | mortality rate (Nilaparvata lugens) [%] |
| --- | --- | --- | --- |
| CCSc1c(-c2cn3cnc(C(F)(F)F)cc3n2)nn(C)c1NC(=O)c1ccc(Cl)nc1 [compound 280] | – | ≥ 50 | – |
| CCSc1c(-c2cn3cnc(C(F)(F)F)cc3n2)nn(C)c1NC(=O)c1cccc(C(F)(F)F)n1 [compound 282] | – | ≥ 50 | ≥ 50 |
| CCSc1c(-c2cn3cnc(C(F)(F)F)cc3n2)nn(C)c1NC(=O)C1(C#N)CC1 [compound 284] | – | ≥ 50 | ≥ 50 |
| CCSc1c(-c2cn3cnc(C(F)(F)F)cc3n2)nn(CC)c1NC(=O)C1(C#N)CC1 [compound 288] | – | ≥ 50 | ≥ 50 |
| CCSc1c(-c2cn3cnc(C(F)(F)F)cc3n2)nn(C)c1NC(=O)c1ncccc1Cl [compound 295] | – | ≥ 50 | ≥ 50 |
| CCSc1c(-c2cn3cnc(C(F)(F)F)cc3n2)nn(C)c1NC(=O)c1cccc(C)c1 [compound 298] | – | ≥ 50 | – |
| CCSc1c(-c2cn3cnc(C(F)(F)F)cc3n2)nn(C)c1NC(=O)c1ccc(C)cc1 [compound 299] | – | ≥ 50 | – |
| CCSc1c(-c2cn3cnc(C(F)(F)F)cc3n2)nn(CC)c1NC(=O)c1ccccc1C [compound 306] | – | ≥ 50 | ≥ 50 |
| CCSc1c(-c2cn3cnc(C(F)(F)F)cc3n2)nn(CC)c1NC(=O)c1cccc(C)c1 [compound 307] | – | ≥ 50 | ≥ 50 |
| CCSc1c(-c2cn3cnc(C(F)(F)C(F)(F)F)cc3n2)nn(CC)c1NC(=O)C(Cl)(Cl)Cl [compound 325] | – | ≥ 50 | ≥ 50 |
| CCSc1c(-c2cn3cnc(C(F)(F)F)cc3n2)nn(C2CC2)c1NC(=O)C(F)(F)C(F)(F)C(F)(F)F [compound 369] | – | ≥ 50 | ≥ 50 |
| CCSc1c(-c2cn3cnc(C(F)(F)F)cc3n2)nn(C)c1NC(=O)c1cccnn1 [compound 374] | – | ≥ 50 | ≥ 50 |
| CCSc1c(-c2cn3cnc(C(F)(F)F)cc3n2)nn(C)c1NC(=O)c1ncccn1 [compound 381] | – | ≥ 50 | ≥ 50 |
| CCS(=O)(=O)c1c(-c2cn3cnc(C(Cl)Cl)cc3n2)nn(C)c1NC(=O)C(F)(F)F [compound 386] | – | ≥ 50 | – |
| CCSc1c(-c2cn3cnc(C(C)(C)F)cc3n2)nn(C)c1N [compound 393] | – | ≥ 50 | ≥ 50 |
| CCSc1c(-c2cn3cnc(C(C)(C)F)cc3n2)nn(C)c1NC(=O)C(F)(F)F [compound 396] | – | ≥ 50 | – |
| CCSc1c(-c2cn3cnc(C(F)(F)F)cc3n2)nn(C)c1NC(=O)CCC(F)(F)F [compound 401] | – | ≥ 50 | ≥ 50 |
| CCSc1c(-c2cn3cnc(C(F)(F)C(F)(F)F)cc3n2)nn(C)c1NC(=O)C(F)(F)C(F)(F)C(F)(F)C(F)(F)F [compound 412] | – | ≥ 50 | ≥ 50 |
| CCSc1c(-c2cn3cnc(C(F)(F)F)cc3n2)nn(C)c1NC(=O)CC(C(F)(F)F)C(F)(F)F [compound 418] | – | ≥ 50 | – |
